Measurements published in paper PMC7131911.
No constants are given. Whether binding was seen depends on the method and setting. In cells and extracts the contact can be indirect. Here binding means that the protein was enriched with, or labelled near, the bait; the list need not be complete.

By UniProt entry, the sequences of proteins in these tests, tags left out.
UniProt Q08857: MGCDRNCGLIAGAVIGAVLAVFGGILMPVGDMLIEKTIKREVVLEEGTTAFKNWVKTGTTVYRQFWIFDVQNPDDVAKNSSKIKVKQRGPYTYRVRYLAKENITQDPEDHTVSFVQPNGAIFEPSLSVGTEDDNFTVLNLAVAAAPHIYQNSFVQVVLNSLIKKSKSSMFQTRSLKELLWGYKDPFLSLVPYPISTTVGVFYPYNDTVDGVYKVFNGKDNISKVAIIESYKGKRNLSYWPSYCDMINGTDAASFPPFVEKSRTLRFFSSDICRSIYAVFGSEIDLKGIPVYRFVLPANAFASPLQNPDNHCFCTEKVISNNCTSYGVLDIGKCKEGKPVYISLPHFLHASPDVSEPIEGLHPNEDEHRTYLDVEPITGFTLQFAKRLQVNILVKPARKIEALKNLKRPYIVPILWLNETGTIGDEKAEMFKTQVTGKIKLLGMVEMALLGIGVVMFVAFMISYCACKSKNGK
UniProt Q9JMA1: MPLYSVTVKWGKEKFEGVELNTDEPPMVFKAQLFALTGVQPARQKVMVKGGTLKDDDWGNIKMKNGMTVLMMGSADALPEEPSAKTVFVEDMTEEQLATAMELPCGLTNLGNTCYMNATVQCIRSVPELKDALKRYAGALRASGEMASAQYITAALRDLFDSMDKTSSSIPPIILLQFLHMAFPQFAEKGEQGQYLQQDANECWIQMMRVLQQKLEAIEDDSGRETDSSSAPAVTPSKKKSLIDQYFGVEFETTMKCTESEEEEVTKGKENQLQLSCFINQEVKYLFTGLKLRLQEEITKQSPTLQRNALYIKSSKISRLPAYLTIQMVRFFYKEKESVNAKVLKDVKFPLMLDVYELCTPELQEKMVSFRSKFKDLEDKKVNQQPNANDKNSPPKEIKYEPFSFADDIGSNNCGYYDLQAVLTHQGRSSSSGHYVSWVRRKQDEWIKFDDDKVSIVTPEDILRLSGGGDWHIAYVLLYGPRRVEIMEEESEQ

Target: CD36 (mouse (endogenous in RAW264.7)) (UniProt Q08857)
Assay: affinity purification with mass spectrometry; cellular extracts from RAW264.7 cells immunopurified with anti-CD36 antibody beads, SDS-PAGE, silver staining, bands excised for LC-MS/MS

How did the binding turn out when “USP14 (from UniProt Q9JMA1 1-493) (enzyme)” was run?
The binding was “binds”.
